Assay results: the supplement of paper PMC11451515

Key:
NOMO1 [1] = assay: cell viability relative to DMSO control; higher = less cytotoxic; settings: 48 h
In short: (§1)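 NOMO1 or SEM cells were plated at 500 cells/well and P12-Ichikawa cells at 1000 cells/well in 1536-well plates (5 μl), after each leukemia line had been adapted for at least four passages in each medium. Pin dosing delivered library compounds in DMSO at 11 threefold concentrations, 47 μM to 0.79 nM. CellTiter-Glo One luminescence was read after 48 h at 37°C. Viability is reported as a per-plate percentage of DMSO wells, with cell-free wells as background.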

P12-Ichikawa [2] = assay: as above; settings: RPMI 5 mM glucose + 10% dialyzed FBS, 48 h
In short: as §1

SEM cells [3] = assay: as above; settings: 48 h
In short: as §1

NOMO1 [4] = assay: AUC of viability dose-response curve (% viability x log10 dose units); higher = less sensitive; settings: 48 h
In short: (§2)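 Area under the curve was integrated by trapezoidal rule from a log-logistic fit of normalised viability, with curves exceeding full viability scaled and quality-control failures removed. The fit had four parameters over log10 doses. Viability came from CellTiter-Glo One luminescence, normalised per plate to DMSO and cell-free wells, after leukemia cells adapted to each medium (500 or 1000 cells/well, 1536-well plates) were exposed to library compounds in DMSO for 48 h at 37°C. The 11 threefold doses ran from 47 μM to 0.79 nM.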

P12-Ichikawa [5] = assay: as above; settings: 48 h
In short: as §2

SEM cells [6] = assay: as above; settings: 48 h
In short: as §2

O[C@@H]1C\C(=C/C(O)C1O)C(O)=O (stereo partly specified)
cell viability [%]
Settings | HPLM + 10% dialyzed FBS | RPMI 5 mM glucose + 10% FBS | RPMI 5 mM glucose + 10% dialyzed FBS
NOMO1 [1], 0.000781 µM | 128 | 115 | 130
NOMO1 [1], 0.00234 µM | 123 | 116 | 121
NOMO1 [1], 0.00702 µM | 116 | 118 | 123
NOMO1 [1], 0.0211 µM | 133 | 135 | 121
NOMO1 [1], 0.0632 µM | 135 | 132 | 132
NOMO1 [1], 0.19 µM | 120 | 115 | 124
NOMO1 [1], 0.569 µM | 140 | 121 | 128
NOMO1 [1], 1.71 µM | 117 | 120 | 96.7
NOMO1 [1], 5.12 µM | 114 | 111 | 126
NOMO1 [1], 15.4 µM | 100 | 115 | 118
NOMO1 [1], 46.1 µM | 124 | 113 | 98.9
SEM cells [3], 0.000781 µM | 104 | 110 | 109
SEM cells [3], 0.00234 µM | 105 | 108 | 119
SEM cells [3], 0.00702 µM | 116 | 125 | 114
SEM cells [3], 0.0211 µM | 116 | 125 | 106
SEM cells [3], 0.0632 µM | 87.9 | 107 | 92.6
SEM cells [3], 0.19 µM | 132 | 117 | 107
SEM cells [3], 0.569 µM | 110 | 106 | 116
SEM cells [3], 1.71 µM | 132 | 115 | 113
SEM cells [3], 5.12 µM | 116 | 115 | 101
SEM cells [3], 15.4 µM | 106 | 114 | 100
SEM cells [3], 46.1 µM | 98 | 112 | 117

Settings | AUC of viability dose-response curve | cell viability [%]
NOMO1 [4], HPLM + 10% dialyzed FBS | 460 | –
NOMO1 [4], RPMI 5 mM glucose + 10% FBS | 464 | –
NOMO1 [4], RPMI 5 mM glucose + 10% dialyzed FBS | 455 | –
P12-Ichikawa [2], 0.000781 µM | – | 120
P12-Ichikawa [2], 0.00234 µM | – | 120
P12-Ichikawa [2], 0.00702 µM | – | 129
P12-Ichikawa [2], 0.0211 µM | – | 134
P12-Ichikawa [2], 0.0632 µM | – | 124
P12-Ichikawa [2], 0.19 µM | – | 119
P12-Ichikawa [2], 0.569 µM | – | 122
P12-Ichikawa [2], 1.71 µM | – | 115
P12-Ichikawa [2], 5.12 µM | – | 119
P12-Ichikawa [2], 15.4 µM | – | 120
P12-Ichikawa [2], 46.1 µM | – | 117
P12-Ichikawa [5], HPLM + 10% dialyzed FBS | 466 | –
P12-Ichikawa [5], RPMI 5 mM glucose + 10% FBS | 462 | –
P12-Ichikawa [5], RPMI 5 mM glucose + 10% dialyzed FBS | 461 | –
SEM cells [6], HPLM + 10% dialyzed FBS | 471 | –
SEM cells [6], RPMI 5 mM glucose + 10% FBS | 474 | –
SEM cells [6], RPMI 5 mM glucose + 10% dialyzed FBS | 470 | –
